Measured values: EP1108710A1, “GUAIACOXYPROPANOLAMINES WITH ALPHA/BETA-ADRENERGIC BLOCKING ACTIVITY” (Cheng, Ing-Jun, priority 1998, dated 2000)
At least one compound was matched to its structure with a doubt left.

Test system: guinea pig's isolated; reserpine pretreated tracheal
Test: Direct effect (tracheal relaxation, intrinsic sympathomimetic activity) on reserpine-pretreated isolated trachea, with and without ICI 118,551
Conditions: cumulative administration 10^-10∼3x10^-6 M
Method: Pharmacol 311, pp. 205-218 and pp.237-248 (1980). guinea pigs of weight between 350 ∼ 500 gm were used. 18 ∼ 24 hours before the experiment, 5mg/kg of reserpine was injected via abdominal cavity to remove all endogenous catecholamines. Prior experiment, guinea pigs were sacrificed, the tracheal was immediately removed and placed in Kreb's solution aerated with air mixture and maintained at room temperature of 22 ∼ 25°C. […] […] Then the tissue was repeatedly washed with Kreb's solution. After the tissue had been re-equilibrated for 60 minutes, ICI 118, 551 were administed. After treatment for 30 minutes, compound 1 of similar concentration was administered, and the intrinsic sympathomimetic activity of tracheal was observed.

COC(=O)C1=C(C)NC(C)=C(C(=O)OC)C1c1ccccc1[N+](=O)[O-] [nifedipine]
tracheal relaxation effect: dose-dependant tracheal relaxation effect
